Assay results reported in paper PMC11316749.

Biological target: OTUD6^C183A.FLAG.HA (Drosophila (endogenous locus, fly heads))
Assay: affinity purification with mass spectrometry; anti-FLAG Dynabeads, Drosophila head lysate (10 mM HEPES pH 7.4, 150 mM NaCl, 5 mM MgCl2, 0.5% Triton X-100), 4 °C 30 min, 3xFLAG peptide elution; untagged OTUD6^C183A flies as control; SAINT analysis

B1: RPS7 (ubiquitination state not told) (protein, UniProt Q9VA91 1-194)
chain: MAIGSKIIKPGGSDPDDFEKSIAQALVELEANSDLKPYLRDLHITRAREIEFGSKKAVIIYVPIPQQKVFQKIQIILVRELEKKFSGKHVVVIAERKILPKPTRKARNPLKQKRPRSRTLTAVYDAILEDLVFPAEIVGKRIRVKLDGSQLVKVHLDKNQQTTIEHKVDTFTSVYKKLTGRDVTFEFPDNYLNV
Question: For B1, which binding is on record?
Answer: binds

B2: DIS3 (enzyme, UniProt Q9VC93 1-982)
chain: MQTLREFTRKTKRGNILKIVREHYLRDDIGCGSELCRECFQNEVYQLTSQHANKSTLFKFPHYLVLDTNVVLDQIDVLEEDVLRNVVVLTTVLNEVKHRSSAIYKRFNEIVHDRTRNFYVFVNEHHKETYADREPDETANDRNDRAIRLATKWYDDHLQASQSSKEFERSGKAATRVVLLTDDAANRAKAEAEGILVTTAAEYVKSLEDFPLLMDKLSHKTFDSEKNGLPQYPPHLSMKELLEGLRQNKLLQGTFQASRENYLEGTVNVEKFEKGILIQGRESLNRAVDGDLVAVELLPEAEWSAPSEIVLEEKNVYADEVPSEERAKDENEMLNQVRAAALSAERTPTGRIVGIVRRKWRQYCGILQPSLIEDTNRHIFVPADRKIPRIRIETRQAAMLQNQRIIVTIDTWPRNSRYPHGHFVRSLGPLGDMATENEVILLEHDVPHCKFSDEVLSFLPKMPWTITDEDYSKRVDLRDLYICSVDPPGCTDIDDALHCKELPNGNLEVGVHIADVSHFIRPGNALDMEAAARGTTVYLVGKRIDMVPELLSSNLCSLVGGVERFAFSCVWEVDNEANVLSKRFHKSVIKSKRAMTYEEAQNIIDDATQQNEIAKSLRNLNRLAKILKKRRMDNGALVLASPEIRFQVDSETHEPLEVEVKQMRETNSMVEEFMLLANITVAEHIATEFSECAVLRRHPRPPPTNFDPLVKSARYQGFQVDINSGLELSHSLDKCVKADNPYFNTMIRILTTRCMMQAVYFISGSLQKEEFFHYGLAAPIYTHFTSPIRRYSDIMVHRLLAASIGADSTYAQLLDRKSNEELCHNLNYRHKMAQYAGRASVALNTHLFFRGKEEDEEGYVLFVRKNALQVLIPKYGLEGTLYLKSDKDGKDGVERVKSEIVFTFNEEDHTQRCGDVVFHSFDPVTVRLSLDSSNVQHEKLIFRLVKPYIKGFSVETTTEGTDSQAVSAAPPSKKTKKDKKKK
Question: With B2 as the binder, how does the binding read?
Answer: binds

Results are given in words; binding and its absence hold for the method and conditions named. Binding seen in cells or lysates may run through a third protein. These calls come from enrichment with a bait or labelling near it, and not all partners need be listed.
